From PMC5537347, “A short D-enantiomeric antimicrobial peptide with potent immunomodulatory and antibiofilm activity against multidrug-resistant Pseudomonas aeruginosa and Acinetobacter baumannii” (Scientific Reports, 2017)

Experiment: Circular dichroism spectroscopy, helical content
Type: physicochemical

SMILES	helical content (with the addition of SDS and TFE)	helical content (in SDS, mean residue ellipticity at 222 nm) [%]	helical content (in TFE, mean residue ellipticity at 222 nm) [%]
CC[C@H](C)[C@H](NC(=O)[C@H](CCCNC(=N)N)NC(=O)[C@H](CCCNC(=N)N)NC(=O)[C@H](CC(C)C)NC(=O)[C@H](Cc1c[nH]c2ccccc12)NC(=O)[C@H](C)NC(=O)[C@H](CCCCN)NC(=O)[C@@H](NC(=O)[C@H](CCCNC(=N)N)NC(=O)[C@H](CCCNC(=N)N)NC(=O)[C@H](CC(C)C)NC(=O)[C@@H](N)Cc1c[nH]c2ccccc12)[C@@H](C)CC)C(=O)N[C@@H](CCCCN)C(=O)N[C@@H](C)C(=O)O [RR4]	about 30%	–	–
CC[C@H](C)[C@H](NC(=O)[C@H](CCCNC(=N)N)NC(=O)[C@H](CCCNC(=N)N)NC(=O)[C@H](CC(C)C)NC(=O)[C@@H](N)Cc1c[nH]c2ccccc12)C(=O)N[C@@H](CCCCN)C(=O)N[C@@H](C)C(=O)N[C@@H](Cc1c[nH]c2ccccc12)C(=O)N[C@@H](CC(C)C)C(=O)N[C@@H](CCCNC(=N)N)C(=O)N[C@@H](CCCNC(=N)N)C(=O)O [RR] (H-WLRRIKAWLRR-OH; N-terminus and C-terminus assumed)	–	12	20

Peptide text beside a SMILES is read from it.
